The supplement of paper PMC11732987, “Enantioselective OTUD7B fragment discovery through chemoproteomics screening and high-throughput optimisation” (Communications Chemistry, 2025)
This is one part of the list. The data scatter; read single values as rough.

Protein sequences, listed by entry. Tags and fused reporters are not part of them. Lines headed by an entry give the natural chain unless they say otherwise; changes in a name come on top. Residues count along the entry.
UniProt Q9BUN5: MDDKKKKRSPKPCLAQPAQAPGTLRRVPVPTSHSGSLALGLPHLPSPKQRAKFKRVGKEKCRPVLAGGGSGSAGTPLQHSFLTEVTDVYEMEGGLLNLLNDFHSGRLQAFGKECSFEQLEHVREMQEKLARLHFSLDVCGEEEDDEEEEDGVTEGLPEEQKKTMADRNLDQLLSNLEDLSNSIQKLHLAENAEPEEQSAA
UniProt Q96MT8: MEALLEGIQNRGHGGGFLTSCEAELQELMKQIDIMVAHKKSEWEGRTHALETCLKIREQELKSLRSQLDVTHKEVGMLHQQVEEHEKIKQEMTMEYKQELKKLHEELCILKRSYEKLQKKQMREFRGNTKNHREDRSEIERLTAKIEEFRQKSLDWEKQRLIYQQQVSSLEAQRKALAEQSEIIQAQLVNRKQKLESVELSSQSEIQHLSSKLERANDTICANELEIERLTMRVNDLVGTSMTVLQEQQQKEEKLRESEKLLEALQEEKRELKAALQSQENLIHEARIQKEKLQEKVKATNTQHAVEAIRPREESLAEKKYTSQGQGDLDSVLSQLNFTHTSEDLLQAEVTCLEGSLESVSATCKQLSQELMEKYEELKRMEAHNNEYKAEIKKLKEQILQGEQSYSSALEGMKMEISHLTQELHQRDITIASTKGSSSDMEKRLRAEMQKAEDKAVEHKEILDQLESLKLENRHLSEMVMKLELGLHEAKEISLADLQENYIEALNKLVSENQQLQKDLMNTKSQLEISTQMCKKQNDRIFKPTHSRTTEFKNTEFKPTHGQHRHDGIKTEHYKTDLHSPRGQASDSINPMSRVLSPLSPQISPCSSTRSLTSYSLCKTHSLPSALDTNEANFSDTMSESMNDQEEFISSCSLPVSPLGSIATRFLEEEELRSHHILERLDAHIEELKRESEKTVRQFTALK
UniProt Q96JM3: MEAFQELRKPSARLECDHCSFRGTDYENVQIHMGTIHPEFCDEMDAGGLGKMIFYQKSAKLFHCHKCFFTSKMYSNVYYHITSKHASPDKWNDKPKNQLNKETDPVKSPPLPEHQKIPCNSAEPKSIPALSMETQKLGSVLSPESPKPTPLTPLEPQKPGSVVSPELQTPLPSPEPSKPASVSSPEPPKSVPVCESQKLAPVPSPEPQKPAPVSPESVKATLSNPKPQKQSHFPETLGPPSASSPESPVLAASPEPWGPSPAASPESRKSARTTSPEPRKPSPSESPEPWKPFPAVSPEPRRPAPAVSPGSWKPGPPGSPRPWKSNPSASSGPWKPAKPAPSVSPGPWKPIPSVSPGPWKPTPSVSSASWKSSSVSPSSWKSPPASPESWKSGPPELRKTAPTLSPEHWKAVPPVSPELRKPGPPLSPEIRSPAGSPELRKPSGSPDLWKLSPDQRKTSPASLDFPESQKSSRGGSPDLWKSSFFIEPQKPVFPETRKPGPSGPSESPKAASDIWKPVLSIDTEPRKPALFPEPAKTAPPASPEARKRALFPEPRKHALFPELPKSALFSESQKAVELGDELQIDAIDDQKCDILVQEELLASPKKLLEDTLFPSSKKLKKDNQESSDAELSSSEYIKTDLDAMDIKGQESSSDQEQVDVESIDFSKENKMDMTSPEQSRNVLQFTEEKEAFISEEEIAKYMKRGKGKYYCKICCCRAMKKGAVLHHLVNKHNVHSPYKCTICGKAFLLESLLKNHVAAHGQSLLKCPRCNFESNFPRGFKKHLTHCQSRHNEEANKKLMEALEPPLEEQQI
UniProt Q96SZ6: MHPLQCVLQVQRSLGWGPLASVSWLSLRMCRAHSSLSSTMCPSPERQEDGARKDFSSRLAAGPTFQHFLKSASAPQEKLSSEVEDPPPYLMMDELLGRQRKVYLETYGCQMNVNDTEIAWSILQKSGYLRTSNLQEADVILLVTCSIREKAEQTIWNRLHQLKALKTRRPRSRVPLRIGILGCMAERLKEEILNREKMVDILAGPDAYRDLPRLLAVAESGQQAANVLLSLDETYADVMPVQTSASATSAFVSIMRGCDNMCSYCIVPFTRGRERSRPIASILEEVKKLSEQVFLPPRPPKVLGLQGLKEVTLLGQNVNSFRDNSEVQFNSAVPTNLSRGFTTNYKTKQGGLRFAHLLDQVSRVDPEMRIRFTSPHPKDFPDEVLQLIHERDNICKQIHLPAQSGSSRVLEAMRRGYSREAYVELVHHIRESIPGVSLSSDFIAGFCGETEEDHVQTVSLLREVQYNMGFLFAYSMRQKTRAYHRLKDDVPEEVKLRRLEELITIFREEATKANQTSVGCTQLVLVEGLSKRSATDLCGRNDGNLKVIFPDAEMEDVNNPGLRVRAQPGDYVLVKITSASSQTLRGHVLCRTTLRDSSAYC
UniProt Q9NSP4: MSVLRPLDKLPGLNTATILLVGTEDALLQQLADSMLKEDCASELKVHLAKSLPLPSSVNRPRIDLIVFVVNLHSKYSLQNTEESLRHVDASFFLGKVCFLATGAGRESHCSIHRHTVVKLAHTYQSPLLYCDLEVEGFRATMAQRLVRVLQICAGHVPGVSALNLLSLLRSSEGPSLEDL
UniProt P48509: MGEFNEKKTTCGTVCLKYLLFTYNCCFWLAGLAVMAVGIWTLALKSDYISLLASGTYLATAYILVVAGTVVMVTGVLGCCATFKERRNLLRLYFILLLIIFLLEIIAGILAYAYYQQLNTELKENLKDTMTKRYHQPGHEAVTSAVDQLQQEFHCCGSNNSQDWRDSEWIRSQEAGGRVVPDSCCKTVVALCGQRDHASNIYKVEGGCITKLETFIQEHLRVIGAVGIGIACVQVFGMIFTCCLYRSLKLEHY
UniProt Q02224: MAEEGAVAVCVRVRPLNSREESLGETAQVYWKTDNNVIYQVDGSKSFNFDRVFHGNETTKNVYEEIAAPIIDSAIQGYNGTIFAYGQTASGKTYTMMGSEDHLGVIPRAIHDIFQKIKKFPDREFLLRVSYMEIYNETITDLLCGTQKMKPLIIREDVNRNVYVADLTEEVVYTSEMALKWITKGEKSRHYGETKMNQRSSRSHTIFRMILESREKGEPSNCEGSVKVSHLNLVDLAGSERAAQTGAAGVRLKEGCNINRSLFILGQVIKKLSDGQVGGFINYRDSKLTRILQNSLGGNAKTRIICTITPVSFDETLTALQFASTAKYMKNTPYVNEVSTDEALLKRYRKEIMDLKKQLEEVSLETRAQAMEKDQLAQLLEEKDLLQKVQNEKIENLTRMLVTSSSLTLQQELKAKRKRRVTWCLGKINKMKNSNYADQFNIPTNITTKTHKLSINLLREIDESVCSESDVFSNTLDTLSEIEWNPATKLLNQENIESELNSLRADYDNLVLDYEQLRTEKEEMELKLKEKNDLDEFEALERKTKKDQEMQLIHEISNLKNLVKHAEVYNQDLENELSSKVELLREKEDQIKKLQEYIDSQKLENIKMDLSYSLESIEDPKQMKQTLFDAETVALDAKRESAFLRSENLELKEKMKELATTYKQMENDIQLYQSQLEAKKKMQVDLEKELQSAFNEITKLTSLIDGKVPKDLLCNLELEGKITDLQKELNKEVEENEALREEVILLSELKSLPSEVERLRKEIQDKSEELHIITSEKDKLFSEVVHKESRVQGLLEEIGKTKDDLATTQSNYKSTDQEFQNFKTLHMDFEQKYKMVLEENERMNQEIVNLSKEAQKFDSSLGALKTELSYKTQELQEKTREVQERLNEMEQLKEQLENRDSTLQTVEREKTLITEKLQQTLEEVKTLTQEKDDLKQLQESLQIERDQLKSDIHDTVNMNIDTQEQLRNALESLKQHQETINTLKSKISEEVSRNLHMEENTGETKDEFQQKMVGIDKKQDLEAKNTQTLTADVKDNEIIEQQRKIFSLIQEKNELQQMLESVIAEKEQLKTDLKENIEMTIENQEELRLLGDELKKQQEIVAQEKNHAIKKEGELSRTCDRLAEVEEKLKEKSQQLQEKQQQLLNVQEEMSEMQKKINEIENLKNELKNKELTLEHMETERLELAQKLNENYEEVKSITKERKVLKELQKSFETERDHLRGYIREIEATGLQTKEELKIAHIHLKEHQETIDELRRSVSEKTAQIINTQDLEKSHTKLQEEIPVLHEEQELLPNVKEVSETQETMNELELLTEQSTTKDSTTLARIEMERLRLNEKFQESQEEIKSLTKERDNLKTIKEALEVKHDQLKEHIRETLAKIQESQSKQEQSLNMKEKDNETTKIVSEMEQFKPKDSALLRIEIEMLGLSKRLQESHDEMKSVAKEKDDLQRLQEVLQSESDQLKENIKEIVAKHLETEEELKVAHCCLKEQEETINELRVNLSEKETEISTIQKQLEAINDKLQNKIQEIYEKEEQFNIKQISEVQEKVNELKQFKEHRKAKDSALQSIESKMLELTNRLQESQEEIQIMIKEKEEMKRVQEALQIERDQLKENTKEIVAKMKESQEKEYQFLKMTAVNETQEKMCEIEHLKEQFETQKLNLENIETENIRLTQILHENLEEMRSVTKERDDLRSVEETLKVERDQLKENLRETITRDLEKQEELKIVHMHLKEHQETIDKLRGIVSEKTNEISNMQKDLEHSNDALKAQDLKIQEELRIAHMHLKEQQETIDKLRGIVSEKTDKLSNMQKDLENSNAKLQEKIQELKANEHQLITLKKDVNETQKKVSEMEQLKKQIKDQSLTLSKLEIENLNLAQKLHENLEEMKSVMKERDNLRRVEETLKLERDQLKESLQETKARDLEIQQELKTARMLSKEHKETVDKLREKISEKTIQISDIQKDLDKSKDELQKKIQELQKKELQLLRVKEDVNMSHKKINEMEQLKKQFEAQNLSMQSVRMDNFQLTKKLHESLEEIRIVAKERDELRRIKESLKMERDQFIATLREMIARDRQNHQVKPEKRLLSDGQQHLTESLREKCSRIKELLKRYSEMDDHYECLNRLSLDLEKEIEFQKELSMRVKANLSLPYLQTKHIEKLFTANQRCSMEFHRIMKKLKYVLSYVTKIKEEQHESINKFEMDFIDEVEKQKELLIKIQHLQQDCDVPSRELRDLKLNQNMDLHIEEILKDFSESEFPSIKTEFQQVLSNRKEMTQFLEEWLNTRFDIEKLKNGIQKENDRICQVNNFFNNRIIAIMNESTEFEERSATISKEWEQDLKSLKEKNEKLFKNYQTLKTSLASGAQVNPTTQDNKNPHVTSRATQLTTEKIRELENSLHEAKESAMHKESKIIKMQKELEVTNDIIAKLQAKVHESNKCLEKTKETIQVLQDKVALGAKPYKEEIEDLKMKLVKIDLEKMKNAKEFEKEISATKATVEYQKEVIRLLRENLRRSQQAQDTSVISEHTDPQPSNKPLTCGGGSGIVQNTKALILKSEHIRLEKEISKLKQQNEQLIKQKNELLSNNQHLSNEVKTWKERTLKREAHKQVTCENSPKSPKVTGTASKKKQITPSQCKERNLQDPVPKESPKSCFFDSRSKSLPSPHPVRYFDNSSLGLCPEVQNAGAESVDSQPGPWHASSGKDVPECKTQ
UniProt Q9P031, 110-152: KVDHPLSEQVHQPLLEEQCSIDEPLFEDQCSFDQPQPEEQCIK
UniProt Q86XR8: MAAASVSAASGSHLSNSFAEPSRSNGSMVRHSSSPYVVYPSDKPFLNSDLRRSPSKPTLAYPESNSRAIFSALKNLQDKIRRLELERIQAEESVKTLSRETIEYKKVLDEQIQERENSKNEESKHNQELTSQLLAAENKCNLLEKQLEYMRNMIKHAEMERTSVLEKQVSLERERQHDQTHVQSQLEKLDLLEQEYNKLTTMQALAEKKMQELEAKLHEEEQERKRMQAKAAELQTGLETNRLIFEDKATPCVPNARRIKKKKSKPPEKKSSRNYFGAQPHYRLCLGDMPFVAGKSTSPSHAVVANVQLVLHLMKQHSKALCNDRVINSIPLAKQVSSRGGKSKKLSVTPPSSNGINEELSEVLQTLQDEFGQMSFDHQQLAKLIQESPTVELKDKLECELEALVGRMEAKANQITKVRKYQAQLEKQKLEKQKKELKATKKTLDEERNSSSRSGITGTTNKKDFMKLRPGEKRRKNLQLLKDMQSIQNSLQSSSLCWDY
UniProt Q9H211: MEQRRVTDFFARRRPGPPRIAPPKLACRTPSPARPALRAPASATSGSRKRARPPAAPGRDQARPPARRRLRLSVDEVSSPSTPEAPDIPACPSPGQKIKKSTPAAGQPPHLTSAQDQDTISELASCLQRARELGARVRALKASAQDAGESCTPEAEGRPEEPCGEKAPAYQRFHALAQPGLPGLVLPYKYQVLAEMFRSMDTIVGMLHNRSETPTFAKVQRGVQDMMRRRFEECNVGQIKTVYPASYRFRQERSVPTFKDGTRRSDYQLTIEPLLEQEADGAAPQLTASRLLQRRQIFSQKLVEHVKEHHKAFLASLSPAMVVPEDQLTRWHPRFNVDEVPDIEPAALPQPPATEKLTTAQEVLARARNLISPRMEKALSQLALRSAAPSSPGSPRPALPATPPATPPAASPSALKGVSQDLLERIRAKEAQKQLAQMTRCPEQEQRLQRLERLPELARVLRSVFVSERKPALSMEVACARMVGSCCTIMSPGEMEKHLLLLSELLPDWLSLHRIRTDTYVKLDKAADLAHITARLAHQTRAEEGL

Legend:
[1] = compound: ClCC(=O)N[C@@H]1CCCc2ccccc12; test: log2 mean competition ratio of IA-DTB cysteine labelling (DMSO/compound) (log2 ratio); higher = stronger cysteine engagement by compound; settings: treatment time: 4 h, cell line lysate: HEK293T
Protocol: (§1)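 IA-DTB competitive cysteine chemoproteomics in HEK293T RIPA lysate. Lysates were treated with compound 29 or 30 at 50 or 200 µM for 4 h, then IA-DTB (500 µM, 1 h), trypsin-digested, NeutrAvidin-enriched and analysed by diaPASEF. Competition ratio = intensity DMSO / intensity compound (n=4 treated, n=64 DMSO); binding: mean log2 CR ≥ 1 and p ≤ 0.05 plus QC filters. Target is the cysteine site.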

[2] = compound: ClCC(=O)N[C@H]1CCCc2ccccc12; test: as above; settings: treatment time: 4 h, cell line lysate: HEK293T
Protocol: as §1

| Target | log2 mean competition ratio ([1]; 50 µM) | log2 mean competition ratio ([1]; 200 µM) | log2 mean competition ratio ([2]; 200 µM) | log2 mean competition ratio ([2]; 50 µM) |
| --- | --- | --- | --- | --- |
| CDC25C C330 (UniProt P30307) | -0.281 | -0.439 | 0.0852 | – |
| CDK6 C280 (UniProt Q00534) | -0.0264 | 0.0565 | -0.0316 | 0.133 |
| CCT3 C366 | -0.317 | -0.00844 | 0.0349 | -0.34 |
| CCDC28B C114 (UniProt Q9BUN5) | 0.259 | 0.243 | 0.112 | -0.425 |
| CEP63 C53 (UniProt Q96MT8) | -0.289 | -0.183 | -0.199 | -0.148 |
| CDC6 C44 (UniProt Q99741) | 0.0774 | -0.0154 | -0.0067 | -0.0373 |
| CHAMP1 C592 (UniProt Q96JM3) | 0.131 | 0.145 | -0.172 | -0.8 |
| CENPK C38 (UniProt Q9BS16) | -0.0338 | 0.0892 | 0.232 | -0.106 |
| CDK12 C1009 (UniProt Q9NYV4) | 0.181 | -0.174 | -0.227 | 0.188 |
| CCDC77 C455 | -0.0657 | -0.0643 | 0.102 | -0.349 |
| CDC23 C442 (UniProt Q9UJX2) | 0.237 | -0.13 | 0.000877 | -0.414 |
| CDK5RAP1 C183 (UniProt Q96SZ6) | 0.4 | 0.18 | 0.149 | -0.034 |
| CDC73 C145 (UniProt Q6P1J9) | -0.175 | -0.223 | 0.307 | 0.608 |
| CCDC22 C369 (UniProt O60826) | -0.0252 | 0.389 | 0.265 | 0.131 |
| CENPM C98 (UniProt Q9NSP4) | -0.119 | -0.347 | 0.0114 | – |
| CD151 C192 (UniProt P48509) | 0.277 | 0.107 | 0.22 | 0.663 |
| CENPE C2602 (UniProt Q02224) | -0.122 | -0.0354 | 0.0943 | -0.11 |
| CCDC59_(C128,C128,C139,C139,C150,C150) (UniProt Q9P031) | -0.0677 | 0.0174 | -0.191 | – |
| CDCA2 C315 (UniProt Q69YH5) | -0.125 | 0.185 | 0.201 | -0.0373 |
| CEP57 C252 (UniProt Q86XR8) | -0.097 | -0.166 | -0.0294 | 0.109 |
| CENPC C800 (UniProt Q03188) | 0.0564 | 0.328 | 0.307 | -0.156 |
| CCNH C57 (UniProt P51946) | 0.327 | 0.0436 | 0.724 | -0.342 |
| CEP350 C966 (UniProt Q5VT06) | -0.191 | 1.35 | – | -0.439 |
| CDT1 C441 (UniProt Q9H211) | 0.165 | 0.329 | 0.0894 | -0.27 |
| CCT8 C244 | 0.361 | -0.0377 | 0.0706 | 0.557 |

Single records, as listed above. Values in the order: log2 mean competition ratio ([1]; 50 µM)	log2 mean competition ratio ([1]; 200 µM)	log2 mean competition ratio ([2]; 200 µM)	log2 mean competition ratio ([2]; 50 µM)
CDK6 C280 (UniProt Q00534) in the list: -0.0264	0.0565	-0.0316	0.133
CEP57 C252 (UniProt Q86XR8) in the list: -0.097	-0.166	-0.0294	0.109
